For this experiment, the target named is prolyl 4-hydroxylase subunit beta (P4HB), endogenous (mouse (endogenous in GA muscle and C2C12)) (UniProt P09103). Description: affinity purification with mass spectrometry; proteins extracted from GA muscle of YES2-bearing mice, Protein A/G Sepharose beads with anti-P4HB antibody, SDS-PAGE, silver staining, differential band by LC-MS/MS.

Protein sequences, listed by entry. Tags and fused reporters are not part of them. Residues count along the entry.
UniProt P09103, residues 20-509: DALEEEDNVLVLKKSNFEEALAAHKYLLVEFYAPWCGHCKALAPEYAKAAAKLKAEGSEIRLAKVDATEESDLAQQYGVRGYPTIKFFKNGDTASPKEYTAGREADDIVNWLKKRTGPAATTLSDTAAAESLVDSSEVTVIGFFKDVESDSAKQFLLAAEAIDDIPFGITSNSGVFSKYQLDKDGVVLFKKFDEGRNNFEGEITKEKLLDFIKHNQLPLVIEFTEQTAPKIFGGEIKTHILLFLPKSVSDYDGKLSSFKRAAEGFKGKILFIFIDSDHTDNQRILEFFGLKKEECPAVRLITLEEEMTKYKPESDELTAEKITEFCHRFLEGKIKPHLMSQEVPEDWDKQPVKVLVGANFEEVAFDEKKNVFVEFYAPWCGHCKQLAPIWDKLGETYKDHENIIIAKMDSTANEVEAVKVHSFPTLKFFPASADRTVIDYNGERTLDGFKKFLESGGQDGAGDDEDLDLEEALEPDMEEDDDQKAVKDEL

No constants are given. Whether binding was seen depends on the method and setting. Binding seen in cells or lysates may run through a third protein. Here binding means that the protein was enriched with, or labelled near, the bait; the list need not be complete.

B1: phosphoglycerate dehydrogenase (PHGDH), endogenous (protein, UniProt Q61753 1-533)
chain: MAFANLRKVLISDSLDPCCRKILQDGGLQVVEKQNLSKEELIAELQDCEGLIVRSATKVTADVINAAEKLQVVGRAGTGVDNVDLEAATRKGILVMNTPNGNSLSAAELTCGMIMCLARQIPQATASMKDGKWDRKKFMGTELNGKTLGILGLGRIGREVATRMQSFGMKTVGYDPIISPEVAASFGVQQLPLEEIWPLCDFITVHTPLLPSTTGLLNDSTFAQCKKGVRVVNCARGGIVDEGALLRALQSGQCAGAALDVFTEEPPRDRALVDHENVISCPHLGASTKEAQSRCGEEIAVQFVDMVKGKSLTGVVNAQALTSAFSPHTKPWIGLAEAMGTLMHAWAGSPKGTIQVVTQGTSLKNAGTCLSPAVIVGLLREASKQADVNLVNAKLLVKEAGLNVTTSHNPGVPGEQGSGECLLTVALAGAPYQAVGLVQGTTPMLQMLNGAVFRPEVPLRRGQPLLVFRAQPSDPGMLPTMIGLLAEAGVQLLSYQTSMVSDGEPWHVMGLSSLLPSLETWKQHVLEAFQFCF
For the molecule B1, the binding entry is on record as “binds”.

The values are drawn from PMC7944388.
